Assay results from PMC11083118.

Assays:
[1] = biological target: T1, α-catenin (rat (endogenous in IAR-20, IAR-6-1, IAR-6-1-DNE)) (UniProt Q5U302); assay: co-IP; total cell lysates (10 mM Tris-HCl pH 7.5, 0.5 mM EDTA, 150 mM NaCl, 0.5% Na deoxycholate, 1% NP-40, protease and phosphatase inhibitors) incubated with primary antibody, then Protein A or G agarose, +4 °C; Western blot; sparse cultures of control IAR-20, IAR-20 treated with EGF for 20 min, IAR-6-1 and IAR-6-1-DNE cells
T1 sequence: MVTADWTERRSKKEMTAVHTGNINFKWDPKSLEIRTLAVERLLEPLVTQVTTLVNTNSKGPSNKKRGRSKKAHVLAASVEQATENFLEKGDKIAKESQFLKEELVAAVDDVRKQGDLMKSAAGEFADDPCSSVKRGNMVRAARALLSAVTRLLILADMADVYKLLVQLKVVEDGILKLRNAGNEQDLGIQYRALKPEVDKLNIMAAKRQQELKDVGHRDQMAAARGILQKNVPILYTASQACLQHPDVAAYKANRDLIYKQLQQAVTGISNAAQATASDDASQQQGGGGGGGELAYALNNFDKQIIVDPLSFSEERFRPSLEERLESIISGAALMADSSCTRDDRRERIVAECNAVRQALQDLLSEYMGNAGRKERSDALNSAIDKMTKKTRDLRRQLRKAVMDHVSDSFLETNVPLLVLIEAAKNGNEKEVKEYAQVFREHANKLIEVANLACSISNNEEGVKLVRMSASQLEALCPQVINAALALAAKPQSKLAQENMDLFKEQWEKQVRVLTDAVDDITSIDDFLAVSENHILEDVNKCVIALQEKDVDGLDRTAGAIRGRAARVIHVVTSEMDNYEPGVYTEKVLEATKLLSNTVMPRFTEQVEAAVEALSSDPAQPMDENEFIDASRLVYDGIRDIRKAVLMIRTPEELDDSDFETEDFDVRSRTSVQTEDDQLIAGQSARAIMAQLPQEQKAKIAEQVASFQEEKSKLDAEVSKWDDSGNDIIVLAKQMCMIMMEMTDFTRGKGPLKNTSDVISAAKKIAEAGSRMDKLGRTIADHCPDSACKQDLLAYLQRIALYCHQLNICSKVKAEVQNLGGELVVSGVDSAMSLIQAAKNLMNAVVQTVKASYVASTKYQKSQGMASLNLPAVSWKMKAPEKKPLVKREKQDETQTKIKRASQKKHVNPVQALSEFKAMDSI

[2] = biological target: zyxin (rat (endogenous in IAR-20, IAR-6-1, IAR-6-1-DNE)); assay: as above

Molecule	binding [1]	binding [2]
E-cadherin (rat (endogenous in IAR-6-1, IAR-6-1-DNE))	binds	
α-catenin (protein, UniProt Q5U302 1-922) MVTADWTERRSKKEMTAVHTGNINFKWDPKSLEIRTLAVERLLEPLVTQVTTLVNTNSKGPSNKKRGRSKKAHVLAASVEQATENFLEKGDKIAKESQFLKEELVAAVDDVRKQGDLMKSAAGEFADDPCSSVKRGNMVRAARALLSAVTRLLILADMADVYKLLVQLKVVEDGILKLRNAGNEQDLGIQYRALKPEVDKLNIMAAKRQQELKDVGHRDQMAAARGILQKNVPILYTASQACLQHPDVAAYKANRDLIYKQLQQAVTGISNAAQATASDDASQQQGGGGGGGELAYALNNFDKQIIVDPLSFSEERFRPSLEERLESIISGAALMADSSCTRDDRRERIVAECNAVRQALQDLLSEYMGNAGRKERSDALNSAIDKMTKKTRDLRRQLRKAVMDHVSDSFLETNVPLLVLIEAAKNGNEKEVKEYAQVFREHANKLIEVANLACSISNNEEGVKLVRMSASQLEALCPQVINAALALAAKPQSKLAQENMDLFKEQWEKQVRVLTDAVDDITSIDDFLAVSENHILEDVNKCVIALQEKDVDGLDRTAGAIRGRAARVIHVVTSEMDNYEPGVYTEKVLEATKLLSNTVMPRFTEQVEAAVEALSSDPAQPMDENEFIDASRLVYDGIRDIRKAVLMIRTPEELDDSDFETEDFDVRSRTSVQTEDDQLIAGQSARAIMAQLPQEQKAKIAEQVASFQEEKSKLDAEVSKWDDSGNDIIVLAKQMCMIMMEMTDFTRGKGPLKNTSDVISAAKKIAEAGSRMDKLGRTIADHCPDSACKQDLLAYLQRIALYCHQLNICSKVKAEVQNLGGELVVSGVDSAMSLIQAAKNLMNAVVQTVKASYVASTKYQKSQGMASLNLPAVSWKMKAPEKKPLVKREKQDETQTKIKRASQKKHVNPVQALSEFKAMDSI		binds

These are yes or no findings as the source states them, for the method shown. Binding seen in cells or lysates may run through a third protein. Binding calls can cover weak binding; strength is not graded here.
